Source: PubChem BioAssay AID1508600 (Functional Genomics Laboratory (NCATS/FGL), 2020)
The campaign covered roughly 53,000 sequences. About 3,700 (7%) were called active.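 Rule for the calls: active = gene knockdowns whose robust z-score for IL-1 alpha signal is at least 2 or at most -2, so actives lie on both sides; inactive = the rest.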 Some of the results follow.

Assay: Components of the Cytosolic LPS Sensing Pathway: Gene Identification via Genome-wide siRNA Screen;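 note: robust z of the log signal after scaling to non-targeting control siRNA wells of the plate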
Settings: RAW264.7 macrophages, IL-1a HTRF, actives lie on both sides, screened at 100 nM (by protocol), cells primed 5 h with Pam3CSK4 first
How it was run: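 Read-out: IL-1a HTRF on supernatant, divided by plate negative-control median ×100, log-transformed and converted to robust z-score. Cells were RAW264.7 given 100 nM siRNA, Pam3CSK4-primed 5 hours, then LipidA-transfected 24 hour.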

Sequence | z-score
CGAAGGACCAGGGAAUCUGTT against Tsg-5 | inactive: -0.793
GGAGAGAAAAACCAACAGCTT against Foxa1 | inactive: 0.182
GGGAGUCAACUCUAUUUAUTT against AW549877 | inactive: 0.41
GCUUGAUAGACCAAAAGAUTT against Zfp654 | inactive: 0.646
CCUUCCACACCUAUUCCAATT against Kcna2 | inactive: 1.89
GGAGGUAUUGUACAUCAAUTT against Nol4 | inactive: 1.18
CGCAUGACCUUCCAGAUGCTT against Myoz1 | inactive: 0.49
CGGAGUUGGGAUUUACCAGTT against Pdia5 | inactive: -0.594
GGCUUACGAGAAAAUAGAATT against Phf8 | inactive: -0.348
GAGCGGGACUUUUGUCAUGTT against Dalrd3 | inactive: -1.49
CCAGUGUUCCCUACUACGUTT against Tmem176b | inactive: 0.607
CCUGUUUACAAGGAAUUGATT against Itgb1 | inactive: 0.265
GGACAGAACUGGAAAUUUUTT against Nudcd2 | inactive: 0.541
GCUAGCAUGCAUCUCUACATT against Asb17 | inactive: 1.78
GGAGCUCCUGUACGACUAUTT against Kmt5a | inactive: -1.66
UGCCCAAGACUCAGAAGUCTT against Igf1 | inactive: 0.0658
GCCAGGCUAUAUUUCAUCCTT against Asb15 | inactive: 0.296
CCAGAGAUUCCCACACGUCTT against Havcr1 | inactive: -1.37
GCGGAGAUCCUACAAUGUUTT against Gpatch2 | inactive: 0.979
GGCAUGAAGCAGGAAGACATT against Ttc19 | inactive: -1.05
GGAACAAAGAGGUGAUGUUTT against Olfr109 | inactive: -0.949
CGUAAGAAAGACUCGUUUATT against Lrrc14b | inactive: 0.439

4 entries from above, as labelled records:
GGAGGUAUUGUACAUCAAUTT against Nol4
  z-score: inactive: 1.18
CGCAUGACCUUCCAGAUGCTT against Myoz1
  z-score: inactive: 0.49
CGGAGUUGGGAUUUACCAGTT against Pdia5
  z-score: inactive: -0.594
GGCUUACGAGAAAAUAGAATT against Phf8
  z-score: inactive: -0.348

(list continues)

Sequence | z-score
GGAUUGUUGGUCCUCAAGUTT against Topbp1 | inactive: -0.603
CCUGGUGAAACGUGUAUGATT against Pate6 | inactive: 1.76
GGAAGAGCUAAUCGAUAUCTT against Tbc1d20 | inactive: -0.276
GCAUCUCUCUACCAUUGACTT against Frmd8 | inactive: 0.538
GGAGCUUUCAGCUAAGACATT against Rassf4 | inactive: 0.671
GGAUUUAUUUAUGUCUUCCTT against Slc17a1 | inactive: 0.0643
GGUGGAGUCUGGAAUUUCATT against Drd3 | inactive: 1.32
GCACUGAGCACAAGAAGAGTT against Gm5478 | inactive: -1.66
CCUUGGUGGAAUCGUUCCUTT against Timd2 | inactive: 0.0733
CCAGAAUGUCUGUAAGGCATT against Rassf5 | inactive: -0.0166
GGAACAGCAGCAGAGACAATT against Ppargc1a | inactive: -1.89
GGAAAGAAGCGAAUUACACTT against Tyw5 | inactive: -0.133
CCGAAUGAGCUUUACCUAUTT against Ctsj | inactive: 0.327
GCCUCAAUAAAUUGUCAGCTT against Slc25a17 | inactive: -0.0131
GGUGUUUCAUAUGGUUACUTT against Psma3 | inactive: -0.94
GGAAACUGAGCUUAAGAUUTT against Cald1 | inactive: 1.2
GGAGUGUUUCUACCAGCCCTT against Tmed5 | inactive: 1.87
CCACGAGAGCCUAAAGCUUTT against Msh5 | inactive: -1.43
GGUUGAUCGCCUUAGAAAUTT against Etnk2 | inactive: -1.32
CGGACAACUUUUGAAGCUGTT against Spata5l1 | inactive: -1.01
GCUUCCAUGCCCAUGGAUATT against Crybb2 | inactive: -0.0547
CGAGCUUUGCUUAAAAUCGTT against Pmp2 | inactive: -1.68

Sequence | z-score
GGUAAAGACUGUGUCAUUUTT against Mfsd11 | inactive: 0.0157
GCUUAUAGAUCAGAUAGGATT against Cd244a | inactive: 0.404
GGAGUGUGGCAUUCAUCCUTT against Olfr667 | inactive: -0.186
GCUGACAACCGAUGACAAUTT against Gja8 | inactive: -0.0179
CCCAUAUGUGGUUUGUAAUTT against Cryaa | inactive: 0.089
GGUGUUUUCUCCAGUUAAGTT against Hfe | inactive: -1.06
GCUACUGUACAUCUACUACTT against Mon1a | inactive: -0.433
CCUCAGGGAAACUAUGUGUTT against Arap3 | inactive: -0.574
GGCCAUCAUAUCACCAUUUTT against Rcsd1 | inactive: 1.6
CCAGUGCGUCACUCAGUAATT against Ssmem1 | inactive: -1.11
GGGCAAGUUUUUUUUUCUUTT against Sf3a2 | inactive: 0.586
GGCUGUGUUAAGACCUUAATT against Mgarp | inactive: -0.971
GCCGUUACUGAGCUGAAAUTT against Allc | inactive: -0.866
GGGAUUUUUUGAACUGAUATT against Nedd4 | inactive: 0.192
GGGAAUGGAAGAAUAUUCUTT against Dppa2 | inactive: 1.61
GGAAAUAAUCCGCCCACGUTT against Mier1 | inactive: 0.785
GGAAAAAGUCAGAGAAAAATT against Sstr2 | inactive: 0.576
GGAAGGCACUCUACUAGGATT against Sugp2 | inactive: 1.35
GGUCUAUGCCAGUUUUGCATT against Tmbim6 | inactive: -0.811
GGGAAAAGAAUCAAAAGUATT against Ccdc83 | inactive: 1.08
GGAUCAGCUGGACAUUCUUTT against Fam216a | inactive: -1.74
GGAUGUUGAAGGUUUUGAATT against Fmr1nb | inactive: -1.55

A few values from above:
z-score with GGGAAAAGAAUCAAAAGUATT against Ccdc83 reads inactive: 1.08
z-score with GGAAAAAGUCAGAGAAAAATT against Sstr2 reads inactive: 0.576
z-score with GGAUCAGCUGGACAUUCUUTT against Fam216a reads inactive: -1.74
z-score with GGGAAUGGAAGAAUAUUCUTT against Dppa2 reads inactive: 1.61

More entries follow:

Sequence | z-score
GGGCAUUGUUCACAAGGACTT against Stk11 | inactive: 0.558
GGAGAUCCAUUAGUGAGACTT against Mdm2 | inactive: -1.44
GGAAUGCUUUUGAGAUUCATT against Ric3 | inactive: 0.454
GGAAAUGACCCAUACUGUUTT against Tia1 | inactive: -1.86
GGGUGGUAGAUUUAUACUATT against Crygc | inactive: 0.0722
GGUAAAAAGUGCCAUUAGATT against Olfr1188 | inactive: -0.214
GGAGGUGGAAUGAGGAAACTT against Cck | inactive: 1.16
CCAGGUCGAACUUCUGUGCTT against Slc39a8 | inactive: -0.82
GGCUAUGCAAUACCAGGUCTT against Nadk | inactive: -1.35
GCCAGACAAAGGUACACUATT against Hmox2 | inactive: -0.0791
CCAAUUGGUAUCAAGCAAUTT against Hsdl2 | inactive: 0.138
GGAUCAAUUGACCACAAACTT against Magi3 | inactive: 0.164
GCCAAUUGGCCUUUGCUAUTT against Olfr1289 | inactive: -0.196
GGCUUUCACACUUGAAGAATT against Cdkn2aipnl | inactive: -0.126
GGAGGUAGAAAAAACACAATT against Ppp2r3c | inactive: 0.817
GGAAGUAGGACUAGCCAUCTT against Akr1c6 | active: 3.37
CCAGGCACUUAAGGAAAUUTT against Bloc1s1 | inactive: -0.801
GGCGGGCAUUUAACAGUGUTT against Dnajc2 | inactive: 0.432
CCAAAGUCUGACACGUUUGTT against Soat2 | inactive: 0.389
CCAACAAGUGAGCUGCAGATT against Olfr724 | inactive: 0.477
CGAAUACGAAAAAAUCGACTT against Thoc7 | inactive: -0.215
CGUGUGUGUCAUGUUACGGTT against Dusp2 | inactive: -0.901

Sequence | z-score
GGUCUUCAAGUCAAUCUUGTT against Chst10 | inactive: 1.16
GGUCUCCAUGGAUUUAUGCTT against Phf7 | inactive: -0.768
GCUUUACUAUGUGAGAAAUTT against Ryk | inactive: -1.89
CCAAAGAUGUUAUUGGACCTT against Olfr1152 | inactive: -1.1
CCAGAGAAGUGGCAGCACUTT against Olfr108 | inactive: -0.773
GGCAUGAAAGGUGUCAUACTT against Zfp119a | inactive: 1.91
CCACUGUUGUGCAAUGCUUTT against Snx25 | inactive: 0.483
CUUCCGAUUUCCAAAUCCUTT against 1700020N01Rik | inactive: 0.96
GGUCUGAUUCACCAUAAUUTT against Sspn | inactive: 0.313
GGGUCUCCGAAACUACUUATT against Tmem144 | inactive: 0.00626
CCCAAAAGCAAACUUGCUGTT against Hp1bp3 | inactive: 0.683
GGAGCUCAAGGAAUAGUGUTT against Mapk8 | inactive: 0.56
GGGUCUGUUCGAUUCAUUATT against Mdfi | inactive: 0.469
GGUCUACAGCUACCUGAAUTT against Npc2 | inactive: 0.105
GGCUUUCUGUUAAAAAGCUTT against Rab3gap2 | inactive: -0.93
GGACCAUUCUGCUAGAUGCTT against Tnfrsf1a | inactive: -0.488
GGUCAAUUCACUUUGUAAGTT against Meox1 | inactive: 0.0974
GGGAUUGACAGUAUUUAAUTT against Tmem169 | inactive: 0.724
GGUGCUAGAUCCACAGAACTT against Agrp | inactive: -0.993
